Data as given in patent US10370356B2, “Pyridinone dicarboxamide for use as bromodomain inhibitors” (GlaxoSmithKline Intellectual Property (No. 2) Limited, priority 2015, dated 2019).
Some entries share one result that the patent states for a list of compounds.

Biological target: T1, BRD4 BD2 (Homo sapiens, UniProt O60885, Y97A)
T1 construct: BRD4 (1-477) (Y97A) and (Y390A); made in house; host or cells: E. coli (pET15b vector)
Assay: BRD4 BD2 mutant TR-FRET competition assay
Type: binding

## CNC(=O)c1cc(C(=O)NCCCC2CCNCC2)cn(Cc2ccccc2)c1=O.Cl [Example 6b, 1-Benzyl-N^3-methyl-2-oxo-N^5-(3-(piperidin-4-yl)propyl)-1,2-dihydropyridine-3,5-dicarboxamide hydrochloride]
  pIC50 in the BRD4 BD2 assay: ≥ 7.0

## CNC(=O)c1cc(C(=O)NCCCC2CCNCC2)cn(Cc2cccc(C)c2)c1=O.Cl [Example 54, N^3-Methyl-1-(3-methylbenzyl)-2-oxo-N^5-(3-(piperidin-4-yl)propyl)-1,2-dihydropyridine-3,5-dicarboxamide hydrochloride]
  pIC50 in the BRD4 BD2 assay: ≥ 7.0

## CNC(=O)c1cc(C(=O)NCCCC2CCNCC2)cn([C@H](C)c2ccccc2)c1=O.Cl [Example 55, (R)-N^3-Methyl-2-oxo-1-(1-phenylethyl)-N^5-(3-(piperidin-4-yl)propyl)-1,2-dihydropyridine-3,5-dicarboxamide hydrochloride]
  pIC50 in the BRD4 BD2 assay: ≥ 7.0

## CNC(=O)c1cc(C(=O)NCCCC2CCNCC2)cn(Cc2cccc3[nH]ccc23)c1=O.Cl [Example 62, 1-((1H-Indol-4-yl)methyl)-N^3-methyl-2-oxo-N^5-(3-(piperidin-4-yl)propyl)-1,2-dihydropyridine-3,5-dicarboxamide hydrochloride]
  pIC50 in the BRD4 BD2 assay: ≥ 7.0

## CNC(=O)c1cc(C(=O)NCCCC2(F)CCNCC2)cn(Cc2ccccc2)c1=O [Example 63, 1-benzyl-N^5-(3-(4-fluoropiperidin-4-yl)propyl)-N^3-methyl-2-oxo-1,2-dihydropyridine-3,5-dicarboxamide]
  pIC50 in the BRD4 BD2 assay: ≥ 7.0
